# Percent effect of library compounds

Source: ChEMBL document CHEMBL3988442, “University of Dundee, Small-Polar-MMV Screening Library” (2021).

Mtb glucose medium: 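Whole-cell growth test on Mycobacterium tuberculosis, read after 3 days in glucose-containing 7H9 medium; the read-out is not stated. Tested at 500 µM. The record gives no direction; compounds that gave an IC50 in retests scored well above the rest, so higher reads as more growth inhibition. About 18,000 compounds were tested under these conditions; 7.9% (about 1,400) showed 50% or more at least once.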
Mtb cholesterol medium: 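Phenotypic screen: M. tuberculosis growth, cholesterol and DPPC medium, 4 days; the read-out is not stated. Tested at 500 µM. Higher reads as more growth inhibition (inferred: compounds with an IC50 in retests scored well above the rest). Of about 18,000 compounds tested this way, about 900 (5%) reached 50% or more in at least one test.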

Values are the deposited “Percent Effect”, in %. The record does not define 0% and 100%; most values in the screen are far below 50% and negative numbers occur (in some assays of this library far below -100). Compounds were drawn at random from those tested, without regard to their results.

| structure | Mtb glucose medium | Mtb cholesterol medium |
|---|---|---|
| `Cc1n[nH]cc1CNCC(O)c1ccccc1` (stereo not shown) | 0.2367% | -9.621% |
| `O=C(NC1CCN(C2CCOCC2)CC1)c1ccc[nH]1` | 0.295% | 1.504% |
| `CC(C)CN(C)CCN1CC2(CCN(C)CC2)OC1=O` | -5.587% | -0.262% |
| `COC(=O)CS(=O)(=O)Cc1ccc(CN)cc1` | -11.04% | -5.994% |
| `O=C(Nc1ncccc1O)c1ccoc1` | -4.226% | -6.394% |
| `CCc1nc(CN(C)CCC(C)O)no1` (stereo not shown) | 5.897% | 3.75% |
| `CCNC(=O)c1ccc(N2CCOCC2)nc1` | 10.42% | -1.995% |
| `O=C(Cc1cccs1)NCC(O)c1ccsc1` (stereo not shown) | 24.11% | 8.245% |
| `CCC(N)C(=O)N1CCc2ccc(OC)cc2C1` (stereo not shown) | 19.92% | 0.1035% |
| `CCc1noc(CN2CCC(CC(N)=O)CC2)n1` | 14.82% | -5.338% |
| `CCC(C)Cn1nc(COC)oc1=O` (stereo not shown) | 16.98% | -3.773% |
| `O=C(NCc1cccnc1)NCc1cc[nH]n1` | -13.36% | -17.47% |
| `Cn1nccc1CNC(=O)c1cccc(C#N)c1` | 7.485% | -0.9033% |
| `CC(C)N(C)C(=O)Nc1ccccc1SCC(N)=O` | -3.201% | -13.22% |
| `CCCn1ccc(CN)n1` | 14.06% | 10.7% |
| `CC(O)C1CCN(CC(=O)NCc2cccs2)CC1` (stereo not shown) | -10.84% | -4.227% |
| `CCC(CC#N)NCc1cccnc1C` (stereo not shown) | -1.293% | -2.365% |
| `CC1CCN(C(=O)CCN2C[C@H](C3CC3)[C@@H](N)C2)CC1` | 37.46% | 23.59% |
| `Cc1cc(C(=O)N[C@@H]2CCOC[C@H]2O)c(C)n1C` | -9.72% | -35.27% |
| `Cc1nc(CN(C)C(=O)NCc2ccccc2)no1` | 25.99% | 21.17% |
| `NC1CC(=O)N(c2c(F)cccc2F)C1` (stereo not shown) | 6.444% | 0.3249% |
| `O[C@@H]1CCN(CC=Cc2ccc(F)cc2)C1` | -7.441% | 19% |
| `Cn1cc(C(=O)OCCn2cc(Br)ccc2=O)cn1` | 7.162% | -12.26% |
| `COc1ccnc(N2CC[S+]([O-])CC2)n1` | 10.98% | -0.0183% |
| `CCOc1ccccc1CCC(N)=O` | 9.094% | 0.5674% |
| `COc1cc2c(cc1OC)CN(C(=O)CCCN)CC2` | 23.55% | 8.607% |
| `CCNC(=O)N1CCc2cc(OC)c(OC)cc2C1` | 21.85% | 21.25% |
| `CCN1CCCC(C)(C(=O)NCCn2cccc2)C1` (stereo not shown) | 8.086% | 0.4386% |
| `O=C(Nc1ccc2cn[nH]c2c1)N[C@@H]1CNCC[C@H]1O` | 21.14% | -6.833% |
| `Cc1cc(C(=O)Nc2ncccc2Cl)n(C)n1` | -6.657% | -8.595% |
| `Cc1ccc(OCC(=O)Nn2cnnc2)c(Br)c1` | 15.35% | 7.601% |
| `O=C(c1cncc(-c2cncnc2)n1)N1CCCC1` | 3.111% | -11.92% |
| `CC(C)(C)OC(=O)NCc1cc(C(N)=O)co1` | 2.454% | -10.31% |
| `CCC=C(C)C(=O)NCC(=O)N1CCCC1` | 8.175% | 5.971% |
| `CC(CNc1ccc2nnnn2n1)N1CCOCC1` (stereo not shown) | -5.586% | -4.307% |
| `OCCc1ccoc1` | 4.184% | 6.896% |
| `C[S+]([O-])c1nncn1CSCc1ccc(Cl)cc1` (stereo not shown) | 39.1% | 48.5% |
| `CC1(CNC(=O)c2ccc3c(c2)OCCO3)CCOC1` (stereo not shown) | 19.04% | -4.456% |
| `OCCC1CCCN1` (stereo not shown) | 9.736% | 7.615% |
| `CNCc1ncno1` | 3.259% | -7.084% |
| `c1cc2c(cc1CNCC1CCCO1)OCO2` (stereo not shown) | 6.734% | 6.501% |
| `CC(CO)(NC(=O)NCc1ccncc1)C1CC1` (stereo not shown) | -7.24% | -4.853% |
| `Cc1noc(C)c1CC(=O)N1CCCO1` | -14.44% | -7.16% |
| `Cc1nc[nH]c1CN1CCC(CN2CCOCC2)CC1` | 7.049% | -2.353% |
| `Cc1ncncc1C(=O)NCCS(=O)(=O)N(C)C` | -20.66% | -18.72% |
| `C=C(C)C(C)(C)C(=O)N[C@@H]1CCOC[C@H]1OCCO` | -16.45% | -24.74% |
| `COCCn1cnc2c1c(=O)[nH]c(=O)n2CC(C)C` | 5.65% | -23.85% |
| `Nc1ccc(N2CCNCC2)cn1` | 5.289% | -7.047% |
| `CC1CCCCN1S(=O)(=O)NCc1ccccn1` (stereo not shown) | 10% | -14.47% |
| `COc1cc(S(=O)(=O)N2CCN=C2C)ccc1F` | 2.382% | -6.045% |
| `CC1CCCN(CCC(=O)Nc2sccc2C(N)=O)C1` (stereo not shown) | 15% | 24.95% |
| `CNC1CCN(C(=O)c2ccccc2)CC1` | 1.485% | -0.4597% |
| `O=C(CSCC(F)(F)F)N1CCOc2ccncc21` | 11.77% | -5.746% |
| `COCCNCCOc1ccc(C)cc1` | 2.407% | 1.884% |
| `NCCCNC(=O)c1ccc(O)cc1` | 0.3517% | -9.424% |
| `Cc1cc(N)n(CC(=O)NCc2nccn2C(C)C)n1` | 4.676% | 10.15% |
| `c1cnc2c(c1)OCCN2` | -4.015% | -5.886% |
| `Cc1ncccc1C(C)O` (stereo not shown) | 1.268% | 33.51% |
| `CC(C)(N)CN1CCCOCC1` | 5.815% | -1.882% |
| `O=C(NCCN1CCOCC1)c1cc2ccccc2o1` | 21.16% | 32.17% |
| `CS(=O)(=O)NCCC1CCCCN1CC1CCNCC1` (stereo not shown) | 1.652% | -1.943% |
| `CN1C[C@@H]2CN(C(=O)CCc3cccnc3)C[C@@H]2C1` | -1.379% | 7.124% |
| `CC(C)NC(=O)CNC(=O)c1cc2cc(F)ccc2[nH]1` | 11.2% | -14.54% |
| `N#Cc1ccccc1N1CCCC(N)C1` (stereo not shown) | 66.64% | 63.65% |
| `COC(=O)c1ccc(NC2CC2)nn1` | 12.43% | 8.536% |
| `O=C(c1ccc2ncsc2c1)N1CCOCC(CO)C1` (stereo not shown) | 22.25% | 4.455% |
| `COCCCNC(=O)CCn1c(=O)oc2ccccc21` | 22.5% | 2.303% |
| `NC(CO)Cc1ccncc1` (stereo not shown) | 4.185% | -18.77% |
| `COc1ccc(Br)c(C(=O)N(CC(N)=O)C(C)C)c1` | 4.511% | -1.117% |